No constants are given. Whether binding was seen depends on the method and setting. Binding seen in cells or lysates may run through a third protein. Some binding calls cover weakened binding; strength is not graded here.
How the values were obtained:
Flag-K215R METTL3 = Flag-K215R METTL3 (UniProt Q86U44); assay: co-IP
Flag-K281R METTL3 = Flag-K281R METTL3 (UniProt Q86U44); assay: co-IP
Flag-tagged METTL3 = Flag-tagged METTL3 (UniProt Q86U44); assay: co-IP
[1] = target: G9a (EHMT2), endogenous, captured by the biotinylated G9a inhibitor UNC0965 (mouse (endogenous in Raw 264.7)) (UniProt Q9Z148); assay: pull-down
HA-tagged G9a = HA-tagged G9a (UniProt Q96KQ7); assay: co-IP

Amino acid sequences for entries named in this document (tags omitted). A change or cut given only in a name is not applied to a line headed by its entry.
UniProt Q86U44: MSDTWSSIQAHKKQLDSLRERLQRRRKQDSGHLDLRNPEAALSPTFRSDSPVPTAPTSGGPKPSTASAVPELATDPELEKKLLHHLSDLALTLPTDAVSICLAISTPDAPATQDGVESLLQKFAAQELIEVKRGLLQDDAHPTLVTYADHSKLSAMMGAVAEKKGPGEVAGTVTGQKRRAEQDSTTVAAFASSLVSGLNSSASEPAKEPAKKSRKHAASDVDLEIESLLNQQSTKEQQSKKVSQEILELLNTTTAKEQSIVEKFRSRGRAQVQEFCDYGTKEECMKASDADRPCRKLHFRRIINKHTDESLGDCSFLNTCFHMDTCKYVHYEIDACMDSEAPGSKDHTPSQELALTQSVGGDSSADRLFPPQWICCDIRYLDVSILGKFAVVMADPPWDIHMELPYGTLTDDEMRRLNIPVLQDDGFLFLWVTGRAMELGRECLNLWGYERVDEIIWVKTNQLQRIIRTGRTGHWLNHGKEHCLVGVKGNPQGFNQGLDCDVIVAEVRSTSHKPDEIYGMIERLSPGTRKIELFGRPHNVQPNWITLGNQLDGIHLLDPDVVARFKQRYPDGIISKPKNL
UniProt Q9Z148: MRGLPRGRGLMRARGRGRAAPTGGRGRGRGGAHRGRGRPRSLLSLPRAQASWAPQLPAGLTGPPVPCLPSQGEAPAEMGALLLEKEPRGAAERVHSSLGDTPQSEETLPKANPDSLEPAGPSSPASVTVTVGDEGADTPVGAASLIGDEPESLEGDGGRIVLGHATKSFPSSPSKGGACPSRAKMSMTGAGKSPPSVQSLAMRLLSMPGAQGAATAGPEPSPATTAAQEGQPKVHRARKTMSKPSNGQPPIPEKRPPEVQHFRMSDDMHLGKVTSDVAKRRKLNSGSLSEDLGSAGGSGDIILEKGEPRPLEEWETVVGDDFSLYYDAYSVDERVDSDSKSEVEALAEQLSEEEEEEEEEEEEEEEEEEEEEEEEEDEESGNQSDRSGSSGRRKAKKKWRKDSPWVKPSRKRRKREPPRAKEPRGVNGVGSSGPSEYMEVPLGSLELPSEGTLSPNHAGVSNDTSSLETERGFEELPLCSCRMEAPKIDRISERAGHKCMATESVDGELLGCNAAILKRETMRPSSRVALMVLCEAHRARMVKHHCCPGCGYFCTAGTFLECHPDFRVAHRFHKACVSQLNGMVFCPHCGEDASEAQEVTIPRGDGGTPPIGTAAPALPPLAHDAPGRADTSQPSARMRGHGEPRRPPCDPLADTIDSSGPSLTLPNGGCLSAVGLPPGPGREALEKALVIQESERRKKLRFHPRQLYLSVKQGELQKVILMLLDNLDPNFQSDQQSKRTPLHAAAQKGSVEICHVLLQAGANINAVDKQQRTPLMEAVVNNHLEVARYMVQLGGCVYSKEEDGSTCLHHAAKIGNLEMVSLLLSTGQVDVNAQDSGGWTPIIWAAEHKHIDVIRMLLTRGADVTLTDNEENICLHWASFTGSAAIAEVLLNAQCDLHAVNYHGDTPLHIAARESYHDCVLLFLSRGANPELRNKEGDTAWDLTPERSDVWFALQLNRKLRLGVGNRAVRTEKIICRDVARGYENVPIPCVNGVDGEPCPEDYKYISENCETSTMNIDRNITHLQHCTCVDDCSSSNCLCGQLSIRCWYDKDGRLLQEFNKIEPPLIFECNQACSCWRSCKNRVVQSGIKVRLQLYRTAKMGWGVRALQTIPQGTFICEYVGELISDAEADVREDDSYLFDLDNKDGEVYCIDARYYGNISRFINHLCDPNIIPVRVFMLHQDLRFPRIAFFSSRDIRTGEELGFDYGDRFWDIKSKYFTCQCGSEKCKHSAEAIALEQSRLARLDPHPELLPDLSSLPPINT
UniProt Q96KQ7: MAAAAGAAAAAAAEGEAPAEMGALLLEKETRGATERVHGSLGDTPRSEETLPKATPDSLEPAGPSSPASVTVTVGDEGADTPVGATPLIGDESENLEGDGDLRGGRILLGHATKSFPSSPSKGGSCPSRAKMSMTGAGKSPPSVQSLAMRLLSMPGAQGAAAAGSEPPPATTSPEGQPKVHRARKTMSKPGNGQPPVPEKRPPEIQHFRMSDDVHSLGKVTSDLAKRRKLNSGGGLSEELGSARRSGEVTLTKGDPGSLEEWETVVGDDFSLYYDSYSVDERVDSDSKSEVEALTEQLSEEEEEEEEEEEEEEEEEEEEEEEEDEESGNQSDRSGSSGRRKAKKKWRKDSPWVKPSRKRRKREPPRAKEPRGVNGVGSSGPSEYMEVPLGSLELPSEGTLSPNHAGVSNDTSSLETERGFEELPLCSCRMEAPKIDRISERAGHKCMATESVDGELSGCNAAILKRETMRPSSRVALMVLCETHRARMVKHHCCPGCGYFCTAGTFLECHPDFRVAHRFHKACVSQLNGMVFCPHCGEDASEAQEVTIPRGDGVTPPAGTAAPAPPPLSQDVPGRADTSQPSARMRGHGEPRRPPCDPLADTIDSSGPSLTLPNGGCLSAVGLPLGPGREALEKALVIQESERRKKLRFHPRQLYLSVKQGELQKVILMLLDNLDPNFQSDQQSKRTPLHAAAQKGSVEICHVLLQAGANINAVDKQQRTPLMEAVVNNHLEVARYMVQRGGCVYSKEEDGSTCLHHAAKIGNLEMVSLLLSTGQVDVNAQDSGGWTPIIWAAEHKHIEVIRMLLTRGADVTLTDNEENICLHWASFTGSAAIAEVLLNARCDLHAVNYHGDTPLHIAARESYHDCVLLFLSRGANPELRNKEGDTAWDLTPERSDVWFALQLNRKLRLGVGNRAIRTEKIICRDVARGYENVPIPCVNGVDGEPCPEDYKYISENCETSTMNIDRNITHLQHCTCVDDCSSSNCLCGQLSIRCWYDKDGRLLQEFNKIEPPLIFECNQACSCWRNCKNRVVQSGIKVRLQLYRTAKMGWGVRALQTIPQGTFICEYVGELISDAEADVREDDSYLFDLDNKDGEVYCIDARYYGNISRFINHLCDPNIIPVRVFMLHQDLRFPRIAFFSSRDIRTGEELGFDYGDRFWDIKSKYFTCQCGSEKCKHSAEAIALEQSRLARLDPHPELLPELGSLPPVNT
UniProt P06730: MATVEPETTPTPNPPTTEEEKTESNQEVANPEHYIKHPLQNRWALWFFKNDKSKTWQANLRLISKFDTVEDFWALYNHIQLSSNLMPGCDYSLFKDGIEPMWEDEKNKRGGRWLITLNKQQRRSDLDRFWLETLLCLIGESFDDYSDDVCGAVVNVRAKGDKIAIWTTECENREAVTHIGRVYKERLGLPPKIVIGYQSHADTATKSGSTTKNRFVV
UniProt P55884: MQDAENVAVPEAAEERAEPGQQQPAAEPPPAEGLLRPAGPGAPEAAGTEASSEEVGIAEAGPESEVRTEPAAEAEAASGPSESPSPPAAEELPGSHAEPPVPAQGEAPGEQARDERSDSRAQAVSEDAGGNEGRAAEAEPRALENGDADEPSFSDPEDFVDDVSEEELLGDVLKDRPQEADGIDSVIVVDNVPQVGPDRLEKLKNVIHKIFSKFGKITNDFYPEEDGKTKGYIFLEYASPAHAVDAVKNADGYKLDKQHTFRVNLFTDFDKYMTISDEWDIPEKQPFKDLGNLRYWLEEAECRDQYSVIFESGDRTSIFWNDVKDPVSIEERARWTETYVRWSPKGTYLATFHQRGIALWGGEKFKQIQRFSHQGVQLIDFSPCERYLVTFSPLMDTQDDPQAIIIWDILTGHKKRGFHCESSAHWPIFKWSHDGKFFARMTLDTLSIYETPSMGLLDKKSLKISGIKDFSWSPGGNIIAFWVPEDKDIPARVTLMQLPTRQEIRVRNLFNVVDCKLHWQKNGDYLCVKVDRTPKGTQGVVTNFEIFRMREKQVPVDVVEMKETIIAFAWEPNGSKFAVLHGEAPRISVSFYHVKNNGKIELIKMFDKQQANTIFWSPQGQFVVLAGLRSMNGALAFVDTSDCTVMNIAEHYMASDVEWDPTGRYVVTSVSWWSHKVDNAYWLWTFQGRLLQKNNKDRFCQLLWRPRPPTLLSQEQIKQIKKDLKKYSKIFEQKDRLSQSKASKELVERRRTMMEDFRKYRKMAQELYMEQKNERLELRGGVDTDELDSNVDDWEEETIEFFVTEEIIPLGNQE
UniProt Q8C3P7: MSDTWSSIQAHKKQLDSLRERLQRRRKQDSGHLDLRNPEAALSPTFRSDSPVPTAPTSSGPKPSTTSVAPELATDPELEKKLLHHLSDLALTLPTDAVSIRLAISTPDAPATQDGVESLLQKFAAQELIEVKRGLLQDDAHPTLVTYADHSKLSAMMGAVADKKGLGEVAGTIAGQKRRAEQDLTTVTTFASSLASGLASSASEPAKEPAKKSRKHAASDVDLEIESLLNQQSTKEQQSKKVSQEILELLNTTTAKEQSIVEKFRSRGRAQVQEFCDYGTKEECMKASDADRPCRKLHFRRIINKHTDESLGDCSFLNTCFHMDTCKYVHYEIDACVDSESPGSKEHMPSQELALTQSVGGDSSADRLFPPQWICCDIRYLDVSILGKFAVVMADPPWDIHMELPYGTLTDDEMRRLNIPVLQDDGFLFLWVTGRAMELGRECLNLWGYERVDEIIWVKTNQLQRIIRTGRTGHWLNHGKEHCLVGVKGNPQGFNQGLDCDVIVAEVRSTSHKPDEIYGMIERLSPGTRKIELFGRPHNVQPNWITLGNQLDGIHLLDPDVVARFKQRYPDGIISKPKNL

eIF4e (from UniProt P06730 1-217)
binding (Flag-K215R METTL3): binds | binding (Flag-K281R METTL3): binds

HA-tagged G9a (from UniProt Q96KQ7 1-1210) (enzyme)
binding (Flag-tagged METTL3): binds

eIF3b (from UniProt P55884 1-814)
binding (Flag-tagged METTL3): binds

METTL3, endogenous in Raw 264.7 macrophages (from UniProt Q8C3P7 1-580) (enzyme)
binding [1]: binds

Flag-tagged METTL3 (from UniProt Q86U44 1-580) (enzyme)
binding (HA-tagged G9a): binds
